In the supplement of paper PMC10849652:
The list shows a part of the results.

By UniProt entry, the sequences of proteins in these tests, tags left out. Where a name states a change or a piece, a line headed by the entry shows the natural chain unless it says otherwise.
UniProt Q2TAL8: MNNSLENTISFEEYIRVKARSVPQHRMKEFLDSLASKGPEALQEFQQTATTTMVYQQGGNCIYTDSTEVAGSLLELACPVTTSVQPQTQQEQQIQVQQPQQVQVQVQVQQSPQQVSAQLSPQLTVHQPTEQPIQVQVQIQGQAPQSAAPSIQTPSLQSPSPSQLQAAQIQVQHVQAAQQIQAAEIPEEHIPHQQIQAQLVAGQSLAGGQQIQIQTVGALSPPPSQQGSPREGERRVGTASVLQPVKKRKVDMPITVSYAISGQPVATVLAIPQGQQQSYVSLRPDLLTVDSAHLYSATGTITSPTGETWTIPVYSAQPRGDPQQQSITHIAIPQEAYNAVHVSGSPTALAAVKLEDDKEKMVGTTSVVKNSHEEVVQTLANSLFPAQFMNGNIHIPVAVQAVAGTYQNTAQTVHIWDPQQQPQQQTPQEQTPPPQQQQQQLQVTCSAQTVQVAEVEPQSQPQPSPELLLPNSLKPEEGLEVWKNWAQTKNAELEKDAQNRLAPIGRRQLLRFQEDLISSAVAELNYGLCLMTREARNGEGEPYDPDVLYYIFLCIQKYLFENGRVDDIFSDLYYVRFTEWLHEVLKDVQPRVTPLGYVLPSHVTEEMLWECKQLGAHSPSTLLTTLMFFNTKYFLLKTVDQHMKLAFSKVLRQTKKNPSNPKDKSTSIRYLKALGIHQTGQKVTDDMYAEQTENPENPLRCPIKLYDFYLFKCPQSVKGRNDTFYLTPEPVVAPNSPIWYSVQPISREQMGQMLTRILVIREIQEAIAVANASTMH
UniProt O43242, whole entry, looked up: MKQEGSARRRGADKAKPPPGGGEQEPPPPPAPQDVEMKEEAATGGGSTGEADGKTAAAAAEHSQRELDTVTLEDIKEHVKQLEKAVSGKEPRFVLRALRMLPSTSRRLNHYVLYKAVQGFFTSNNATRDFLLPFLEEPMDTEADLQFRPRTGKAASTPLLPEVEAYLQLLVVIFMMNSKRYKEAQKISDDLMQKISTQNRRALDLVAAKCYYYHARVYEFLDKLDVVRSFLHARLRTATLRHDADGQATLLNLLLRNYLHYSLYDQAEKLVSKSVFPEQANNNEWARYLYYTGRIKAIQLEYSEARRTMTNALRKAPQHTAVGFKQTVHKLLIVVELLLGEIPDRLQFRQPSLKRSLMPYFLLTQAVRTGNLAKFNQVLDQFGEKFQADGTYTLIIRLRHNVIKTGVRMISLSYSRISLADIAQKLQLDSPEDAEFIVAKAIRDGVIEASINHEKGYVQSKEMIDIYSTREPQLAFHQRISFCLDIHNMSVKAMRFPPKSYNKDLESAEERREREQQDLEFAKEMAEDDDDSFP
UniProt P32322: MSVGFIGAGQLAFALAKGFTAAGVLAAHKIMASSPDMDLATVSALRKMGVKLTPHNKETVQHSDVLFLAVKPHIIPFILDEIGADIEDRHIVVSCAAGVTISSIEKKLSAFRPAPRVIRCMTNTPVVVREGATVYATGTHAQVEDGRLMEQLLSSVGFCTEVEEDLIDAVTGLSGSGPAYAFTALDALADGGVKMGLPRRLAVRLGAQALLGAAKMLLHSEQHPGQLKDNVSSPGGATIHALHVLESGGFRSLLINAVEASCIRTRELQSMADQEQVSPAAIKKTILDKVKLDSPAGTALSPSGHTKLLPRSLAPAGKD
UniProt Q9NXS2: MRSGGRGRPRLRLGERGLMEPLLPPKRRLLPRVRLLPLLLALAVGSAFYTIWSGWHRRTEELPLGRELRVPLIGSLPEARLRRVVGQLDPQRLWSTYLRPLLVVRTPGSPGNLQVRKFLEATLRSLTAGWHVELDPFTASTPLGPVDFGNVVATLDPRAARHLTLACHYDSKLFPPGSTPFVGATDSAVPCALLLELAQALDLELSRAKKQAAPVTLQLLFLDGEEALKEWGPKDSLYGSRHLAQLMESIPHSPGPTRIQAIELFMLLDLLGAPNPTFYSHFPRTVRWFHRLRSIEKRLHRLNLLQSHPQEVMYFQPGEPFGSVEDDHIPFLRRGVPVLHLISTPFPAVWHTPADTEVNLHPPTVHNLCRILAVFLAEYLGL
UniProt Q9BT73: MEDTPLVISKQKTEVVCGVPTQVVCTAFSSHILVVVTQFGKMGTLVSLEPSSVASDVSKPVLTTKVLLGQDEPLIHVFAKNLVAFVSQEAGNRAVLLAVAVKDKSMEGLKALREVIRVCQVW
UniProt Q9ULZ3, whole entry, looked up: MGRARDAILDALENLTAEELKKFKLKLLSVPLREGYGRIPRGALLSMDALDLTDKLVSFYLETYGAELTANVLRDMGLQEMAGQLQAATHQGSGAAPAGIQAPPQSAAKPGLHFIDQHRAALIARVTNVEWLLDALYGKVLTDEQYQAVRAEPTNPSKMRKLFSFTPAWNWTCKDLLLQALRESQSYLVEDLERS
UniProt Q99436: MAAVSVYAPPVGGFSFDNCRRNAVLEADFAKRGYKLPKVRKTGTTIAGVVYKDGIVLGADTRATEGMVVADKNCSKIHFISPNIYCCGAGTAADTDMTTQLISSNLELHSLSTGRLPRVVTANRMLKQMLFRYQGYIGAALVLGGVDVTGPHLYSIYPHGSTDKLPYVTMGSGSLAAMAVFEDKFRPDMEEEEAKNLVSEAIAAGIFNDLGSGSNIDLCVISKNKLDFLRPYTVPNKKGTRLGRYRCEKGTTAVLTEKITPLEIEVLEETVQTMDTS
UniProt Q8WUK0: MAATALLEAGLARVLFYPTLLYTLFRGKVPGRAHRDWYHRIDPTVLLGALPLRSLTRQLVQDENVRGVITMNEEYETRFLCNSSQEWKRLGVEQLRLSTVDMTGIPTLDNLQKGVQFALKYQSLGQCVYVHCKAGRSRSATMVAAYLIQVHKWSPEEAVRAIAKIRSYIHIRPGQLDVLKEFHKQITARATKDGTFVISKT
UniProt Q96I23: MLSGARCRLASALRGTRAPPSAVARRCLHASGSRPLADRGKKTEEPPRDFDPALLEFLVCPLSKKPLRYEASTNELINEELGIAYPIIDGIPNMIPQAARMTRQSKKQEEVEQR
UniProt O00391: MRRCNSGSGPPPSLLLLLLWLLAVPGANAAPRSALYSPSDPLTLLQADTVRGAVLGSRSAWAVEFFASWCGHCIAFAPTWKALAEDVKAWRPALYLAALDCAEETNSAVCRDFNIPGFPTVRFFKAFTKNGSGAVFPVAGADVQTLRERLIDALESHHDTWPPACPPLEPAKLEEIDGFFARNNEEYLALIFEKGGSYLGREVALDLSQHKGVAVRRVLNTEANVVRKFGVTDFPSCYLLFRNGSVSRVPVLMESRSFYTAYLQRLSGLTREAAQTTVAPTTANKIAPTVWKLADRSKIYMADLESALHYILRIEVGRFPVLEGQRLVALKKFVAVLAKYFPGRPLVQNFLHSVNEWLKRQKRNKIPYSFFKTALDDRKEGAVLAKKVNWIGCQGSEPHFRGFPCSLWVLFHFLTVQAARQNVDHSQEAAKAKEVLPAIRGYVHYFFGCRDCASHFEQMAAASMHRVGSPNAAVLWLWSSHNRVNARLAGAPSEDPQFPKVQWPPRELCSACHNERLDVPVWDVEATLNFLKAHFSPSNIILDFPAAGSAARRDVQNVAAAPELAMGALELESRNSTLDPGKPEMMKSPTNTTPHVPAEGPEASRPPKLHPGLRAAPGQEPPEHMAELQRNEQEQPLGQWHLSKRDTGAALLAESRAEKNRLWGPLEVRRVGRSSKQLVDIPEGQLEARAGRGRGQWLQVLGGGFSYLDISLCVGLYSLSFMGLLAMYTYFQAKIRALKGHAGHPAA
UniProt Q9H974: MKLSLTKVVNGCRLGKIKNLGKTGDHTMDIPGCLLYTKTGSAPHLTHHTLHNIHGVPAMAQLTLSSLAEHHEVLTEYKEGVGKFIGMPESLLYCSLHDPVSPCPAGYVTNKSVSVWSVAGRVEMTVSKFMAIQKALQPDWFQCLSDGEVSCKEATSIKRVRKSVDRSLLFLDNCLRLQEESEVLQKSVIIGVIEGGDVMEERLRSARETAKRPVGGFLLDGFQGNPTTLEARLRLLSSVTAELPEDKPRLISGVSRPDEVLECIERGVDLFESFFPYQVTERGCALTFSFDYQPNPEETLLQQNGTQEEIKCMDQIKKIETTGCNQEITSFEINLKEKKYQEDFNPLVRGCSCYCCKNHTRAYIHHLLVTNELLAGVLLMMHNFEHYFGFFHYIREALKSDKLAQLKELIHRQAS
UniProt P09417: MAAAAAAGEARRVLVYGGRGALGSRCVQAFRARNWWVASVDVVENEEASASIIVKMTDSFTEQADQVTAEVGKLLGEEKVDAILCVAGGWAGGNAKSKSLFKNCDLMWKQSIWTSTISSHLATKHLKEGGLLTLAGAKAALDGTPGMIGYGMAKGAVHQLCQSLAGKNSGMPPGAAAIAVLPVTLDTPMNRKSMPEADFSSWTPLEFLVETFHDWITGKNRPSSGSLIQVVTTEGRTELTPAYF
UniProt P25787: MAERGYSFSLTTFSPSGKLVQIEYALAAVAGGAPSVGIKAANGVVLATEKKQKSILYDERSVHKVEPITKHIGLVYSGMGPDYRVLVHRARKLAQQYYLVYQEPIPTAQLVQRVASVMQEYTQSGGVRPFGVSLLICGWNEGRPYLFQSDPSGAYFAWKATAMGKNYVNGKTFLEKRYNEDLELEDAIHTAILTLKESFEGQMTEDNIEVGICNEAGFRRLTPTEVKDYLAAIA
UniProt Q99460, whole entry, looked up: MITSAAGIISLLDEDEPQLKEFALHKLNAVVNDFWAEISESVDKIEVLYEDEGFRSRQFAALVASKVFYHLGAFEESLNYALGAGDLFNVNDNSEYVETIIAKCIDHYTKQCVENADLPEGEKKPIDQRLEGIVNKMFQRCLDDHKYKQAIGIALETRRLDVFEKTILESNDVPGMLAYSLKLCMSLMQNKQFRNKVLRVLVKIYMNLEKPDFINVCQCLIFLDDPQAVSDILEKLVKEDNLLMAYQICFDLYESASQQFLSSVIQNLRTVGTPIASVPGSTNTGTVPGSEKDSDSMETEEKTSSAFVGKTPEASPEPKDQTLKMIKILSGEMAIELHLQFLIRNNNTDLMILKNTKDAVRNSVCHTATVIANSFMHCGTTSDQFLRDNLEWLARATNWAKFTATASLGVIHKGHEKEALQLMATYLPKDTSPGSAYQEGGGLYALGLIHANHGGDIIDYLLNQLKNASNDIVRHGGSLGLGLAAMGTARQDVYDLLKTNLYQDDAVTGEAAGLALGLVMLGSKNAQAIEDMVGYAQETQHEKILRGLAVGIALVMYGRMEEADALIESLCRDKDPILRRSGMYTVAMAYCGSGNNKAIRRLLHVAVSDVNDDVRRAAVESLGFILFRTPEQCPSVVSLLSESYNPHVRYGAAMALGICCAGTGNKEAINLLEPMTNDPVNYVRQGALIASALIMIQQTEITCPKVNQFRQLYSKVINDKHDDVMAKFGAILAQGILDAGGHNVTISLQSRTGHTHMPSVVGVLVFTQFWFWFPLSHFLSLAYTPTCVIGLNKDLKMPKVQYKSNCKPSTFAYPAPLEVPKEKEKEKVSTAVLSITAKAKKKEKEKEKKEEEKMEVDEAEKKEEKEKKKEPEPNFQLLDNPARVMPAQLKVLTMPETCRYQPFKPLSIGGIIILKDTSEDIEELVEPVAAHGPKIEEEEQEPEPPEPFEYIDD
UniProt P28072: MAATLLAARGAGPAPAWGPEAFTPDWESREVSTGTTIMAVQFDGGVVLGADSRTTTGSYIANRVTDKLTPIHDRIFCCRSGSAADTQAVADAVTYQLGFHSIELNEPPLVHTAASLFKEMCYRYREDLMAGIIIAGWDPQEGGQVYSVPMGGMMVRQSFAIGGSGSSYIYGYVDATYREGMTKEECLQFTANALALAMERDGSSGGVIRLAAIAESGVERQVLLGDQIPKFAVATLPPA
UniProt Q12974: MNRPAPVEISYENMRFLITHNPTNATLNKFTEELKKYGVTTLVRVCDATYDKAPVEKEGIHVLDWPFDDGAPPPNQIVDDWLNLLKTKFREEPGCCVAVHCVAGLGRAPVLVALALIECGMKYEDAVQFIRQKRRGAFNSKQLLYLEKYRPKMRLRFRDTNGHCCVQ
UniProt Q96PZ0: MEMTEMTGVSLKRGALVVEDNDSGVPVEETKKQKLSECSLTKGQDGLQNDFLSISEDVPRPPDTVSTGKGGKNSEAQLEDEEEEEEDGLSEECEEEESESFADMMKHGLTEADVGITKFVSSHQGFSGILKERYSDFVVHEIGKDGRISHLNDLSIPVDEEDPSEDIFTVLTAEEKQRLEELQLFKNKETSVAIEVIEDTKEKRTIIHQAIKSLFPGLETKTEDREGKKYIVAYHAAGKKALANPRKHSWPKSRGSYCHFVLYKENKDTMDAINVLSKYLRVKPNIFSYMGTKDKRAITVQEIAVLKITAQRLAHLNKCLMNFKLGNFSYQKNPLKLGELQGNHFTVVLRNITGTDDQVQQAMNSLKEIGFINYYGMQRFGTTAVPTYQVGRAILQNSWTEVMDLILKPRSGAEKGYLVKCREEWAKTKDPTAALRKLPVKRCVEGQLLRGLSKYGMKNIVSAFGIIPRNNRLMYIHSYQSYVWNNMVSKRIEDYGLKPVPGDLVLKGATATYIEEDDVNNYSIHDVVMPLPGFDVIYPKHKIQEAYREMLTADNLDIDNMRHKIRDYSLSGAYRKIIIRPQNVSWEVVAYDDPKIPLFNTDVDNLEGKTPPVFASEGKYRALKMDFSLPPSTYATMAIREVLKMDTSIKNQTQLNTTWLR

Compound: O=C(CCCCCCNC(=O)c1cnc(N(c2ccccc2)c2ccccc2Cl)nc1)NO [citarinostat]
Assay: log2 fold change, soluble protein after heating vs DMSO (PISA); higher = thermal stabilisation; K562 cells, 10 uM, 30 min; active = over 0.2 and 3.5 SD of the protein, either way, in both replicates (recomputed)
Method in brief: (§1)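 Aliquots of K562 cells (2×10^6 cells/mL) treated with 10 μM compound for 30 min were heated for 3 min over 48°C-58°C. After pooling and extraction in PBS with 0.5% NP-40 at 4°C, soluble protein from a 21,000xg, 90 min spin was quantified by TMTpro 16plex LC-MS/MS with channel sums equalised. Thermal stability is expressed against control samples, from duplicates, as a log2 fold change.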

Target | log2 fold change
PSMD4 (UniProt Q5VWC4) | inactive: 0.066
QRICH1 (UniProt Q2TAL8) | inactive: 0.11
PSMD3 (UniProt O43242) | inactive: -0.009
PSMA7 isoform 2 (UniProt O14818) | inactive: -0.316
PYCR1 isoform 3 (UniProt P32322) | inactive: 0.032
PTMA (UniProt P06454) | inactive: -0.018
QPCTL (UniProt Q9NXS2) | inactive: 0.007
PSMG3 (UniProt Q9BT73) | inactive: 0.07
PTPN23 (UniProt Q9H3S7) | inactive: 0.05
PSMB2, A0A087WVV1 | inactive: 0.062
PSMB10 (UniProt P40306) | inactive: 0.026
PYCARD (UniProt Q9ULZ3) | inactive: 0.035
PSMB7 (UniProt Q99436) | inactive: -0.027
PTPMT1 (UniProt Q8WUK0) | inactive: 0.014
PTPN1 (UniProt P18031) | inactive: 0.087
PSMA3 (UniProt P25788) | inactive: 0.005
PTPRN2 isoform 3 (UniProt Q92932) | inactive: -0.184
PYURF (UniProt Q96I23) | inactive: -0.034
PSMB4 (UniProt P28070) | inactive: 0.008
QSOX1 (UniProt O00391) | inactive: -0.242
QTRT2 isoform 4 (UniProt Q9H974) | inactive: 0.008
PTBP3 isoform 4 (UniProt O95758) | inactive: 0.078
QDPR (UniProt P09417) | inactive: 0.029
R3HDM1 isoform 2 (UniProt Q15032) | inactive: 0.029
PSMA2 (UniProt P25787) | inactive: -0.023
PSMD13 (UniProt Q9UNM6) | inactive: -0.017
PSMD1 (UniProt Q99460) | inactive: 0.014
PSMB6 (UniProt P28072) | inactive: -0.046
PTP4A2 (UniProt Q12974) | inactive: 0.016
PUS7 isoform 2 (UniProt Q96PZ0) | inactive: -0.024

Compound: O=C(O)c1ccc2c(c1)nc(Nc1cccc(Cl)c1)c1ccncc12 [silmitasertib]
Assay: as above
Method in brief: as §1

Target | log2 fold change
PSMD4 (UniProt Q5VWC4) | inactive: 0.018
QRICH1 (UniProt Q2TAL8) | inactive: 0.047
PSMD3 (UniProt O43242) | inactive: 0.008
PSMA7 isoform 2 (UniProt O14818) | inactive: 0.272
PYCR1 isoform 3 (UniProt P32322) | inactive: -0.028
PTMA (UniProt P06454) | active: -0.628
QPCTL (UniProt Q9NXS2) | inactive: -0.017
PSMG3 (UniProt Q9BT73) | inactive: -0.023
PSD2 (UniProt Q9BQI7) | inactive: 0
PTPN23 (UniProt Q9H3S7) | inactive: 0.037
PSMB2, A0A087WVV1 | inactive: 0.082
PSMB10 (UniProt P40306) | inactive: -0.117
PYCARD (UniProt Q9ULZ3) | inactive: 0.013
PSMB7 (UniProt Q99436) | inactive: -0.01
PTPMT1 (UniProt Q8WUK0) | inactive: 0.032
PTPN1 (UniProt P18031) | inactive: 0.126
PTK2B (UniProt Q14289) | inactive: 0.054

Target | log2 fold change
PSMA3 (UniProt P25788) | inactive: -0.002
PTPRN2 isoform 3 (UniProt Q92932) | inactive: -0.053
PYURF (UniProt Q96I23) | inactive: 0.049
PYROXD1 (UniProt Q8WU10) | inactive: 0.078
PSMB4 (UniProt P28070) | inactive: 0.002
QSOX1 (UniProt O00391) | inactive: -0.149
QTRT2 isoform 4 (UniProt Q9H974) | inactive: 0.055
PTBP3 isoform 4 (UniProt O95758) | inactive: 0.005
PSEN2 (UniProt P49810) | inactive: 0.078
QDPR (UniProt P09417) | inactive: -0.034
R3HDM1 isoform 2 (UniProt Q15032) | inactive: -0.08
PSMA2 (UniProt P25787) | inactive: -0.033
PSMD13 (UniProt Q9UNM6) | inactive: 0.033
PSMD1 (UniProt Q99460) | inactive: -0.019
PSMB6 (UniProt P28072) | inactive: -0.004
PTP4A2 (UniProt Q12974) | inactive: 0.052
PUS7 isoform 2 (UniProt Q96PZ0) | inactive: -0.014

Compound: O=C1NC(=O)C(c2cnc3ccccn23)=C1c1cn2c3c(cc(F)cc13)CN(C(=O)N1CCCCC1)CC2
Assay: as above
Method in brief: as §1

Target | log2 fold change
PSMD4 (UniProt Q5VWC4) | inactive: 0.054
QRICH1 (UniProt Q2TAL8) | inactive: -0.276
PSMD3 (UniProt O43242) | inactive: 0.014
PSMA7 isoform 2 (UniProt O14818) | inactive: -0.185
PYCR1 isoform 3 (UniProt P32322) | inactive: 0.037
PTMA (UniProt P06454) | inactive: 0.021
QPCTL (UniProt Q9NXS2) | inactive: 0.112
PSMG3 (UniProt Q9BT73) | inactive: -0.042
PSD2 (UniProt Q9BQI7) | inactive: -0.246
PTPN23 (UniProt Q9H3S7) | inactive: -0.065
PYCARD (UniProt Q9ULZ3) | inactive: -0.086
PSMB7 (UniProt Q99436) | inactive: 0.009
PTPMT1 (UniProt Q8WUK0) | inactive: -0.015
PTPN1 (UniProt P18031) | inactive: 0.026
PTK2B (UniProt Q14289) | inactive: 0.072
PSMA3 (UniProt P25788) | inactive: 0.102
PTPRN2 isoform 3 (UniProt Q92932) | inactive: -0.096
PYURF (UniProt Q96I23) | inactive: -0.117
PYROXD1 (UniProt Q8WU10) | inactive: 0
PSMB4 (UniProt P28070) | inactive: 0.022
QSOX1 (UniProt O00391) | inactive: 0.086
QTRT2 isoform 4 (UniProt Q9H974) | inactive: -0.061
PTBP3 isoform 4 (UniProt O95758) | inactive: 0.028
QDPR (UniProt P09417) | inactive: -0.02
PSMA2 (UniProt P25787) | inactive: 0.02
PSMD13 (UniProt Q9UNM6) | inactive: 0.044
PSMD1 (UniProt Q99460) | inactive: 0.094
PSMB6 (UniProt P28072) | inactive: 0.044
PTP4A2 (UniProt Q12974) | inactive: -0.168
PUS7 isoform 2 (UniProt Q96PZ0) | inactive: -0.002
